Results are given in words; binding and its absence hold for the method and conditions named. In cells and extracts the contact can be indirect. Binding can be weak; no strength is given. For part of these data: Sequences can lack the tags named with a protein.
B1: endogenous NONO (protein, UniProt Q15233 1-471)
chain: MQSNKTFNLEKQNHTPRKHHQHHHQQQHHQQQQQQPPPPPIPANGQQASSQNEGLTIDLKNFRKPGEKTFTQRSRLFVGNLPPDITEEEMRKLFEKYGKAGEVFIHKDKGFGFIRLETRTLAEIAKVELDNMPLRGKQLRVRFACHSASLTVRNLPQYVSNELLEEAFSVFGQVERAVVIVDDRGRPSGKGIVEFSGKPAARKALDRCSEGSFLLTTFPRPVTVEPMDQLDDEEGLPEKLVIKNQQFHKEREQPPRFAQPGSFEYEYAMRWKALIEMEKQQQDQVDRNIKEAREKLEMEMEAARHEHQVMLMRQDLMRRQEELRRMEELHNQEVQKRKQLELRQEEERRRREEEMRRQQEEMMRRQQEGFKGTFPDAREQEIRMGQMAMGGAMGINNRGAMPPAPVPAGTPAPPGPATMMPDGTLGLTPPTTERFGQAATMEGIGAIGGTPPAFNRAAPGAEFAPNKRRRY
B2: Myc-NONO (protein, UniProt Q15233 1-471)
chain: B1 chain

How the values were obtained:
[1] = biological target: SFB-tagged HAT domain of human OGA (C-OGA) (human); test: co-IP; two-step co-IP from 293T cells transfected with SFB-C-OGA, after DNA damage: streptavidin beads first, then anti-NONO or anti-Ku70/80 antibodies; western blot (O-GlcNAc)
[2] = biological target: SFB-tagged HAT domain of human OGA (C-OGA) (human); test: co-IP; SFB-OGA constructs expressed in 293T cells, with Myc-tagged or endogenous NONO, Ku70, Ku80; lysed with NETN300 buffer; IP and western blot; with or without 10 Gy of IR

Row | Binder | binding [1] | binding [2]
1 | B1 | binds | binds
2 | B2 | – | binds

From PMC8209095
